Source: patent US20150265633A1, “STEROID CONTAINING DRUG DELIVERY SYSTEM” (Allergan, Inc., priority 2007, published 2015)
Entries after “also recorded” stand apart in the source; their conditions may differ. For at least one compound, name, drawing or mass did not settle the structure.

Test system: VEGF-induced BRB and BAB breakdown in rabbit eye
Assay: Rabbit model of VEGF-induced BRB and BAB breakdown, scanning ocular fluorophotometry, aqueous steroid suspensions (Example 1)
Type: in vivo
[1] = rabbit eye, 1 mg (100 μl of 10 mg/ml suspension) intravitreal, VEGF one month thereafter, fluorophotometry 48 hrs after VEGF
[2] = rabbit, corticosteroid administered systemically or intravitreally

Which “inhibition of VEGF-induced BAB breakdown (iris leakage, anterior segment)” value [1] does the source give for `C[C@@H]1C[C@H]2[C@@H]3CCC4=CC(=O)C=C[C@]4(C)[C@@]3(F)[C@@H](O)C[C@]2(C)[C@@]1(O)C(=O)CO` [Dexamethasone] here?
The value was “completely inhibited; also recorded: inhibit”.

And the “inhibition of VEGF-induced BRB breakdown (retinal leakage, posterior segment)” value [1]?
The value was “completely inhibited; also recorded: inhibit”.

What about the “block of VEGF-induced BAB breakdown (iris leakage)” value [2] of the same compound?
Its value is “completely blocked”.

And the “block of VEGF-induced BRB breakdown (retinal leakage)” value [2]?
Its value is “completely blocked”.
